Data published in publication PMC5650626, “Deletion of MtrA Inhibits Cellular Development of Streptomyces coelicolor and Alters Expression of Developmental Regulatory Genes”.

Assays:
[1] = molecular target: T1, MtrA (MtrASCO) (Streptomyces coelicolor M145) (UniProt Q9KYW8); assay: EMSA; conditions: EMSA: 20 mM Tris-HCl pH 8.0, 2 mM EDTA, 20 mM KCl, 0.5 mM DTT, 4% Ficoll-400, 2 ug poly(dI-dC), 50 fmol probe, 20 ul, room temperature 15 min, footprinting 25 C, 30 min, recombinant protein, residues 1-229, label: biotin-11-UTP 3' end
T1 sequence (looked up): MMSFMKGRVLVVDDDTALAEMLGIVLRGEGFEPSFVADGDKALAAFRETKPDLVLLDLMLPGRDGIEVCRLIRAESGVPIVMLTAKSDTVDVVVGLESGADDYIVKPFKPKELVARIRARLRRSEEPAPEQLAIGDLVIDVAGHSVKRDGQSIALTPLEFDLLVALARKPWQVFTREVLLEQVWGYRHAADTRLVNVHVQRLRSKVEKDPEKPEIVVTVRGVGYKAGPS

[2] = molecular target: T1, MtrA (MtrASCO) (Streptomyces coelicolor M145); assay: DNase I footprinting; conditions: recombinant protein; residues 1-229; label: FAM; probe letters rebuilt from the primers and the genome; part of a longer molecule
[3] = severely reduced, 2.1-6.3 ug MtrA

“TGACGCAGCAGAACAGCGCTGCGTAACCTCACAGTGAGTTACCAGCCGCGCGGCCGACA (double strand) [SCO1489-M3 59bp]”: binds more weakly ([1]; markedly reduced, 2.1-6.3 ug MtrA).

“TGACGCAGCAGAGTAACGCTGCGTAACCTCACAACGGGTTACCAGCCGCGCGGCCGACA (double strand) [SCO1489-M2 59bp]”: binds more weakly ([1]; only slightly reduced).

“GGACATATGGCTCCCCGGACAAGGTGTCGACGCGGCAGGCTGTGTTGTCGGCCGCGCGGCTGGTAACTCACTGTGAGGTTACGCAGCGTTACTCTGCTGCGTCAAGCCGAATGGTCCGCACCGACTCTTCCGTGGTATTCGCCATCCATTACTCCGTGCGGGTGATCGATGTGGGGCAGAGGAGTGACGGGGGAGTGTCAGGGGGGTCATCGGAGAGGTTCTGTGAGCCTGCTACCGTAGGTGGCGCATATCCGACGTCCTTTAAGGTCCGTCCCGTGAGGC (double strand) [bldD footprinting probe]”: binds [2].

“TCACAGTCGTCTTCGGCACCGAACGCGTCCGCCTTTAGAGAATGACCGTGATCTGGTGA (double strand) [whiI-bM 59bp (SCO6029-bM)]”: binds more weakly [1, 3].

“TGACGCAGCAGAGTAACGCTGCACAGCCTCACAGTGAGTTACCAGCCGCGCGGCCGACA (double strand) [SCO1489-M1 59bp]”: binds more weakly ([1]; markedly decreased, 2.1-6.3 ug MtrA).

“CACCAGCCGTCGTTCATCGTTCCGGGCAGGGGGTCCGCACGTCCGGAGGAGGTTCCGTCACTTTGTCGACACGGCCACTTTCGGCCTCGTATCGACAAAGTGCGGAACCGTTCGATCTTCGAATGATCGACAGTGTGTCCGAATTGCTCGGATTGTTACTCACCAGATCGTGATCATTCTCTAAAGGCGGACGCGTTCGGTGCCGAAGACGACTGTGACCTTGAAAGCACGGTTCGTCCCGGCTTAAACCCCATGAGCCGGCCCCGTCCCCGCACCCCAGGAGGCCTGGTGTC (double strand) [whiI footprinting probe]”: binds [2].

“GATCTGGTGAACACGAATCCGAGCAATTCGGACACACTGTCGATCATTCGAAGATCGAA (double strand) [whiI-aM 59bp (SCO6029-aM)]”: binds more weakly [1, 3].

For some of these results: Weaker means in comparison with the reference protein, sequence or condition of that experiment. For some of these results: Where a protein sequence is shown, tags need not be part of it. For some of these results: Construct, isoform or probe ends are uncertain for at least one entry.
